Five substances from publication PMC5159797 can be followed below.

Amino acid sequences for entries named in this document (tags omitted).
UniProt Q15691: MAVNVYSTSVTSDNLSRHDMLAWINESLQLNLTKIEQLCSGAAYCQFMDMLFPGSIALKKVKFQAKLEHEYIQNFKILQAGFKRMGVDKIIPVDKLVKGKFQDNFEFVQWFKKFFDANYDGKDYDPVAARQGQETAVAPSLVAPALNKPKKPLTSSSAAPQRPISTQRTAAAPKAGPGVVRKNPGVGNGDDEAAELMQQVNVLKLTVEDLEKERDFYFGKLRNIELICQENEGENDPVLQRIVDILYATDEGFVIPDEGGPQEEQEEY
UniProt P49841: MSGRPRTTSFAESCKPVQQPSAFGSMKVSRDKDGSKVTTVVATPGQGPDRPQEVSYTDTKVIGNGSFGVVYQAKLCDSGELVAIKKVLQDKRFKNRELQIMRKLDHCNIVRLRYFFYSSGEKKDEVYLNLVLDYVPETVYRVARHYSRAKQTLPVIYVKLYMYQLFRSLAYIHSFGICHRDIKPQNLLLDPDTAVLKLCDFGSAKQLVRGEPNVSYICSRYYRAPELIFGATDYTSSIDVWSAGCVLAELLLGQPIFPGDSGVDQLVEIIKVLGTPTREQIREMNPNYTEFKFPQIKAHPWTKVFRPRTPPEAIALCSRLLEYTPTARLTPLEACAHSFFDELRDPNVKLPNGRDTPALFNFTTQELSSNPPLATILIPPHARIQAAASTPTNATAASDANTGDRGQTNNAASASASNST
UniProt Q8N4N8: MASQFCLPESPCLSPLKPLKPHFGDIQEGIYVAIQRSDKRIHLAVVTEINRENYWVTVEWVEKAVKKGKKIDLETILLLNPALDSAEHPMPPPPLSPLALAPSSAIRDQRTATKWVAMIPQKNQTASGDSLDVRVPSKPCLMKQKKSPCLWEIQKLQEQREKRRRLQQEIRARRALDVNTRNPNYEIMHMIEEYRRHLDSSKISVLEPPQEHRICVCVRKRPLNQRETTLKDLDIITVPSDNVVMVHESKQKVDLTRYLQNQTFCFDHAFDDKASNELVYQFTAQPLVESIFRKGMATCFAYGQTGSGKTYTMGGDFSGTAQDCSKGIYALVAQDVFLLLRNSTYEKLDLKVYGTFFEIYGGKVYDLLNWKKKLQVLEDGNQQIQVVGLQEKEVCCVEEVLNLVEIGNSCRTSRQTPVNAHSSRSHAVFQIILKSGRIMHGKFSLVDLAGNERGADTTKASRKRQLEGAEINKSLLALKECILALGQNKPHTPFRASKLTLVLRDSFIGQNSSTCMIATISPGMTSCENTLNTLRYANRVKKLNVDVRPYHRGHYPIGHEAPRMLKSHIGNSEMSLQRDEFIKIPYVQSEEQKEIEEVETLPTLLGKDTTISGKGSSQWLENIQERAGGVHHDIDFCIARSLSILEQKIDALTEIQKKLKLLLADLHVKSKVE

No constants are given. Whether binding was seen depends on the method and setting. Binding seen in cells or lysates may run through a third protein. Some entries that bind do so weakly or less than the wild type. For part of these data: Sequences can lack the tags named with a protein.

Assay [1] deals with T1, SKAP (small kinetochore-associated protein), endogenous (human (endogenous in HeLa)) (UniProt Q9Y448).
T1 sequence: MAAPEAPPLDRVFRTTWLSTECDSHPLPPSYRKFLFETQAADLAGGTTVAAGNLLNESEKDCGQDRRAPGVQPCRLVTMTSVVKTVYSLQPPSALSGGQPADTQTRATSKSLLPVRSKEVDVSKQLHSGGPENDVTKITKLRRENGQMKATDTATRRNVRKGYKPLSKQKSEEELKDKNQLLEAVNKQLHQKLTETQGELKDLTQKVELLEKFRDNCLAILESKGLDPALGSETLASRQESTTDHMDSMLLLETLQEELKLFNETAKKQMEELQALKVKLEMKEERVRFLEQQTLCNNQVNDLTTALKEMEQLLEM
The assay is described as follows: co-IP; HeLa cell lysates (synchronized in mitosis; also unsynchronized, prometaphase or metaphase) incubated with SKAP rabbit IgG pre-bound to Protein A/G-agarose, control IgG; Western blot.

The next assay concerns the target T2, FLAG-SKAP (UniProt Q9Y448).
T2 sequence: T1 sequence
The assay is described as follows: co-IP; HEK293T co-transfected with FLAG-SKAP and GFP-tagged proteins; anti-FLAG antibody-agarose beads; lysis buffer 50 mM HEPES pH 7.4, 100 mM NaCl, 2 mM EGTA, 1 mM MgCl2, 1 mM DTT, 0.1% Triton X-100; also after SB415286 for 30 min; anti-GFP and anti-FLAG blots.

The target of another assay is T3, GST-SKAP (UniProt Q9Y448).
T3 sequence: T1 sequence
The assay is described as follows: pull-down; GST fusion protein-bound sepharose beads incubated 2 h at 4 °C with HEK293T cell lysates containing GFP-tagged proteins; PBS, 0.1% Triton X-100; anti-GFP blot; only the target purified.

“EB1, endogenous (from UniProt Q15691 1-268)”: the binding result in assay [1] is on record as “binds”.

As to “GFP-GSK3β (from UniProt P49841 1-420) (enzyme)”, the binding result in the assay with FLAG-SKAP was “binds”.

As for GFP-Kif2b (from UniProt Q8N4N8 1-673), the binding result in the assay with GST-SKAP and with FLAG-SKAP was “binds” in each case.

Turning to “GSK3β, endogenous (from UniProt P49841 1-420) (enzyme)”, the binding entry in assay [1] is listed as “binds”.

As to “Kif2b, endogenous (from UniProt Q8N4N8 1-673)”, in assay [1], the binding entry is “binds”.
